Taken from: PubChem BioAssay AID652272 (Drosophila RNAi Screening Center, 2013)
The screen tested about 21,000 reagents; this is an unselected part of those with a known target gene and a result. Over the whole deposit, 503 (2.4%) were called active. 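Raw plate light values, not normalised; calls rest on replicate z-scores that were not deposited; hits include reporter decreases as well as increases.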 A plus sign joins genes that one reagent is predicted to hit. Not stated in the record: the amount of reagent, the time to read-out.

Test: 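Genome-wide knock-down search for components of Hedgehog signalling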 (primary screen)
System: Drosophila clone 8 (Cl8) cells
Reagent: long dsRNA against Drosophila genes
Read-out: 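Firefly light from a Hedgehog-responsive ptc promoter reporter and Renilla reference light, both read on a plate reader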
Scale: firefly Hh reporter signal: higher = more ptc reporter light; Renilla reference signal: higher = more Renilla control light
Rule for the call: 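Called a hit if the two-replicate mean z-score lies below -2 or above +3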
Calls: active = hit: reporter lowered or raised; inactive = not a hit

Gene | dsRNA | firefly Hh reporter signal, replicate 1 | firefly Hh reporter signal, replicate 2 | firefly Hh reporter signal, replicate 3 | Renilla reference signal, replicate 1 | Renilla reference signal, replicate 2 | call
Ets98B | DRSC16666 | 1.29e5 | 1.67e5 | – | 3569 | 5737 | inactive
CG13280 | DRSC02253 | 79800 | 57046 | – | 2157 | 5954 | inactive
yellow-g | DRSC08575 | 66672 | 34663 | – | 2048 | 3250 | inactive
Cyp6a13 | DRSC07375 | 53750 | 30292 | – | 2464 | 1602 | inactive
png | DRSC18582 | 63650 | 1.58e5 | – | 1808 | 6600 | inactive
CG30083 | DRSC05572 | 1.41e5 | 2.80e5 | – | 4378 | 11433 | inactive
CG12693 | DRSC17882 | 86636 | 1.88e5 | – | 3168 | 6793 | inactive
Ocho | DRSC11239 | 1.06e5 | – | – | 1808 | 3293 | inactive
asRNA:CR43463 + Pgant35A | DRSC03557 | 1.78e5 | 5.01e5 | 59227 | 4613 | 28736 | inactive
CG14907 + Mettl4 | DRSC15026 | 75249 | 83709 | – | 2297 | 2091 | inactive
CG14907 + Mettl4 | DRSC15027 | 65693 | 83140 | – | 2288 | 2198 | inactive
CG4080 | DRSC10398 | 1.24e5 | 72945 | – | 4848 | 2870 | inactive
LRP1 | DRSC07238 | 82918 | 39578 | – | 2018 | 3360 | inactive
Ptr | DRSC04852 | 70562 | 59720 | – | 1224 | 4438 | inactive
Hus1-like | DRSC12353 | 1.16e5 | 1.74e5 | – | 3104 | 4951 | inactive
Jheh2 | DRSC06530 | 1.14e5 | 44391 | – | 2832 | 2400 | inactive
CG13707 | DRSC08316 | 44768 | 66816 | – | 5216 | 4913 | inactive
Jhbp1 | DRSC12167 | 1.11e5 | 1.37e5 | – | 4137 | 2645 | inactive
lncRNA:CR34047 | DRSC07857 | 5.39e5 | 1.58e5 | 82189 | 3792 | 4875 | inactive
Sgs5bis | DRSC16263 | 81573 | 92784 | – | 2660 | 2365 | inactive
Sema1b | DRSC07550 | 1.22e5 | 96284 | – | 6147 | 4304 | inactive
CG9795 | DRSC12336 | 1.17e5 | 90888 | – | 4934 | 3226 | inactive
CG5199 | DRSC11770 | 79660 | 1.05e5 | – | 3257 | 3043 | inactive
scramb1 | DRSC09724 | 48184 | 88838 | 56882 | 7206 | 3472 | inactive
scramb1 | DRSC10667 | 59081 | 75301 | 71192 | 6660 | 4259 | inactive
scramb1 | DRSC10668 | 48952 | 61061 | 50584 | 5181 | 3424 | inactive
CG15631 | DRSC00466 | 1.05e5 | 69933 | – | 2389 | 4803 | inactive
CG32718 | DRSC17538 | 5.14e5 | 1.45e5 | – | 28361 | 3563 | inactive
CG4362 | DRSC15567 | 4.92e5 | 96770 | – | 28856 | 2416 | inactive
CG13800 (retired record) | DRSC08334 | 64871 | 38129 | – | 1504 | 2888 | inactive
Raf | DRSC18821 | 50519 | 1.93e5 | – | 1483 | 7083 | inactive
Hpd | DRSC11670 | 1.16e5 | 95825 | – | 4363 | 4145 | inactive
CG31898 | DRSC01019 | 4.35e5 | 1.56e5 | – | 22016 | 6578 | inactive
Dbp45A | DRSC07395 | 87073 | 44373 | – | 3376 | 1257 | inactive
CG30283 | DRSC04071 | 76470 | 42727 | – | 1563 | 4467 | inactive
CG14695 | DRSC14918 | 59392 | 1.23e5 | – | 2157 | 3097 | inactive
CG9541 | DRSC03257 | 1.08e5 | 47175 | – | 2728 | 4773 | inactive
CG8839 | DRSC07285 | 89802 | 45383 | – | 4296 | 2178 | inactive
CG15923 | DRSC15129 | 94665 | 54996 | – | 4563 | 2434 | inactive
